The assay in a line: qHTS Assay for Lipid Storage Modulators in Drosophila S3 Cells.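 On cell number change: cells counted by Cell Tracker Red CMTPX staining in the red channel.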 To be noted: BODIPY lipid droplet fluorescence, 18-24 h; for cell number change: measured here: cell count max response, cells fed with added oleic acid. The procedure, abridged: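 Drosophila S3 cells got compounds at several concentrations plus oleic acid (400 uM solution). Laser-scanning cytometry with 488 nm excitation read lipid droplets at 500-530 nm and cells at 575-640 nm. Percent activity was relative to 20 uM Triacsin C.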

Where [1] appears, read: measured here: cell number channel AC50, cells fed with added oleic acid.
[2] abbreviates: measured here: lipid fluorescence (Fed channel) AC50, cells fed with added oleic acid.

This is one part of the list. Shown are side measurements of this screen, not its main read-out; they come without a call. The list favours compounds with an active or inconclusive main result. Potencies come from curve fits of mixed quality, noted in brackets.

Usually AC50 stands for the concentration giving half of the maximal activity seen. Read a high AC50 as weaker potency.

For the compound `CCC(=O)OCCNc1cc(Sc2nccn2C)c2nonc2c1[N+](=O)[O-]`, the cell number change is -59.3%. Also, the AC50 under setting [1] is 3.66 µM [falling, full curve]. The AC50 under setting [2] was 5.17 µM [falling, full curve].
With `CCOc1cc(CNc2ncnc3nc[nH]c23)ccc1OC`, the cell number change turned out to be 3.88%. In addition, the AC50 under setting [2] was 3.66 µM [rising, single point].
Consider `C=CCNc1cc(C(F)(F)F)nc(-c2ccccn2)n1`, for which the cell number change was determined as 17%. The AC50 under setting [2] was 29.1 µM [rising, single point].
Regarding `CCN(CC)c1ccc(/C=N/N2CCN(Cc3ccccc3Cl)CC2)c(O)c1`, the cell number change was -23.4%. The AC50 under setting [2] was 18.4 µM [falling, single point].
On to `O=[N+]([O-])c1ccccc1S(=O)(=O)N1CCCc2ccccc21`, for which the cell number change was -8.21%. The AC50 under setting [2] was 29.1 µM [falling, single point].
Turning to `CCOc1cccc2cc(C(=O)Nc3ccccc3-c3ccccc3)c(=O)oc12`, the cell number change worked out at 10.5%. Besides, the AC50 under setting [1] was 6.51 µM [rising, single point].
As to `CCOc1ccc(S(=O)(=O)N(CC(=O)N2CCc3ccccc32)Cc2ccco2)cc1`, the cell number change was -20.7%. Further, under setting [2], the AC50 was 0.00461 µM [rising, full curve].
On to `O=C(O)CSCC(=O)N1CCCN(c2nccc(C(F)(F)F)n2)CC1`, for which the cell number change was -18.4%. For the same compound, the AC50 under setting [2] is 5.8 µM [falling, full curve].
As to `COc1ccc(C(=O)Nc2ccc(C(=O)N3CCCCC3)cc2)cc1OC`, the cell number change worked out at 42.8%. For the same compound, under setting [1], the concentration at half-maximal activity (AC50) is 29.1 µM [rising, partial curve, poor fit]. Also, the AC50 under setting [2] was 6.51 µM [falling, single point].
Consider `CC(NC(=O)c1ccc2c(=O)n3c(nc2c1)CCCCC3)c1ccccc1` (stereo unspecified), for which the cell number change amounted to 13.7%. The AC50 under setting [2] was 16.4 µM [falling, partial curve, poor fit].
As for `CCCCn1c(SCC(=O)N2CCCC2)nc2c1c(=O)n(C)c(=O)n2C`, the cell number change stood at 5.89%. For the same compound, the concentration at half-maximal activity (AC50) under setting [2] was 13 µM [rising, single point].
As to `COc1cccc(CN(C)C(=O)c2cccc(NC(=O)CC3SC(N4CCCCC4)=NC3=O)c2)c1OC` (stereo unspecified), the cell number change is 32.4%. In addition, the AC50 under setting [1] was 16.4 µM [rising, partial curve]. Besides, the AC50 under setting [2] is 25.9 µM [rising, partial curve].
For the compound `COc1ccc(C(=O)OCC(=O)NC(Cc2ccccc2)C(C)=O)cc1S(=O)(=O)N1CCCC1` (stereo unspecified), the cell number change is -33.7%. For the same compound, the AC50 under setting [1] is 29.1 µM [falling, single point].
For the compound `COc1ccccc1NC(=S)NCc1ccc(F)cc1`, the AC50 under setting [2] is 29.1 µM [falling, single point].
As for `O=C1CCCC2=C1C1(CCCC1)N=C(Nc1nc3ccccc3s1)N2`, the cell number change stood at 1.78%. In addition, the AC50 under setting [1] is 0.00461 µM [rising, full curve, poor fit]. The AC50 under setting [2] is 1.16 µM [rising, partial curve, poor fit].
As to `COC(=O)C1=C(C)N(c2cc(Cl)cc(Cl)c2)C(=O)C1`, the cell number change came to 2.39%. For the same compound, the AC50 under setting [2] is 0.13 µM [rising, full curve, poor fit].
`Cc1sc(NC(=O)CSc2nnc(-c3ccccc3)o2)c(C#N)c1C`: the cell number change is -15.5%. Further, under setting [2], the AC50 was 0.164 µM [rising, partial curve].
Take `COc1ccc(CCNC(=O)CSc2nnc(-c3ccccc3)c3ccccc23)cc1OC`: the cell number change is -39.2%. For the same compound, the AC50 under setting [1] is 14.6 µM [falling, single point]. For the same compound, the AC50 under setting [2] is 10.3 µM [falling, partial curve].
Take `O=C(N/N=C/c1coc2ccccc2c1=O)c1cc(Br)c(O)c(Br)c1`: the cell number change came out at 19.8%. The AC50 under setting [1] is 0.731 µM [rising, partial curve, poor fit]. In addition, the AC50 under setting [2] was 29.1 µM [rising, single point].
`COc1ccc(OC2C(=O)N(c3ccc(C)c(C)c3)C2c2ccc(OC)c(OC)c2)cc1` (stereo unspecified): the cell number change is -24.8%.
Regarding `O=C(COC(=O)c1cnccn1)NCc1ccc2c(c1)OCO2`, under setting [2], the AC50 was 0.651 µM [falling, full curve].
As to `CCC(Sc1ccc(Cl)cc1)C(=O)Nc1nnc(-c2cccc([N+](=O)[O-])c2)s1` (stereo unspecified), the cell number change was determined as 11.8%.
`CCNc1nc(SC(C)C(=O)Nc2ccccc2)nc(N(C)C)n1` (stereo unspecified): the cell number change was -51.5%. Under setting [1], the AC50 was 14.6 µM [falling, partial curve]. In addition, under setting [2], the AC50 is 8.2 µM [falling, partial curve].
On to `CC1CCCCN1C(=O)C12CCC(C)(C(=O)C1)C2(C)C` (stereo unspecified), for which the cell number change was -20.7%. Further, the AC50 under setting [2] was 0.517 µM [falling, full curve].
As to `COc1ccc(Cl)cc1NC(=O)Cn1nc(-c2ccc(C)cc2)n(C)c1=S`, the cell number change worked out at 3.72%. Also, the AC50 under setting [2] is 25.9 µM [rising, single point].
Consider `S=C(c1ccc(-c2cc(Cl)ccc2Cl)o1)N1CCOCC1`, for which the cell number change was 69.8%. For the same compound, under setting [1], the AC50 was 0.517 µM [rising, full curve]. Besides, the AC50 under setting [2] was 1.3 µM [rising, partial curve].
As for `O=S(=O)(O/N=C1\CCCc2ccccc21)c1ccccc1`, the cell number change is -1.98%. Also, the AC50 under setting [2] is 0.164 µM [falling, full curve, poor fit].
As for `COc1cc(C(=O)Nc2ccc(S(=O)(=O)N(C)c3ccccc3)cc2)cc(OC)c1OC`, the cell number change is -1.64%. Moreover, the AC50 under setting [2] was 18.4 µM [falling, single point].
Turning to `Cc1ccc(NC(=O)CN2C(=O)NC(Cc3ccccc3)C2=O)c(Br)c1` (stereo unspecified), under setting [1], the AC50 was 0.411 µM [rising, partial curve].
`Cc1ccc(S(=O)(=O)N(C)CC(=O)OCc2nnc(-c3ccccc3)o2)cc1`: the cell number change was 3.97%. Further, under setting [2], the AC50 is 29.1 µM [falling, single point].
Regarding `O=C(Nc1cccc(C(F)(F)F)c1)C1CCCN(S(=O)(=O)c2cnc[nH]2)C1` (stereo unspecified), the cell number change worked out at 4.18%.
Consider `Cn1c(N)c(C(=O)COC(=O)CCOc2ccc(C(C)(C)C)cc2)c(=O)n(C)c1=O`, for which the cell number change was found to be 119%. The AC50 under setting [1] is 29.1 µM [rising, single point]. Moreover, the AC50 under setting [2] was 29.1 µM [rising, partial curve].
Regarding `COc1cccc(/C=N/NC(=O)c2cnn(-c3ccccc3)c2N)c1`, the cell number change is -19.9%. Besides, the AC50 under setting [2] is 29.1 µM [falling, single point].
Regarding `COc1ccccc1/C=N\N=C(\N)c1ccccn1`, the cell number change was found to be 8.21%. The AC50 under setting [2] is 0.731 µM [falling, full curve, poor fit].
Consider `CCOc1ccc(C(=O)N/N=C/c2cccc3cccnc23)cc1`, for which the cell number change was -14.3%. Further, under setting [2], the AC50 was 2.31 µM [falling, partial curve].
Consider `C[C@H](NC(=O)C1(c2ccccc2)CCN(C(=O)[C@H]2CSCN2C(=O)OC(C)(C)C)CC1)C(=O)O`, for which the AC50 under setting [2] was 29.1 µM [falling, single point].
As for `COc1cccc(-c2coc3c(C)c4oc(=O)c(CC(=O)O)c(C)c4cc23)c1`, the cell number change was -21.6%. In addition, under setting [1], the AC50 is 0.13 µM [falling, full curve, poor fit]. In addition, the AC50 under setting [2] is 6.51 µM [rising, single point].
In the case of `COc1cccc(N(C(=O)Cn2nnc(-c3ccc(C)o3)n2)C(C(=O)NC2CCCC2)c2ccncc2)c1` (stereo unspecified), the cell number change is -1.32%. The AC50 under setting [2] was 35.5 µM [falling, single point].
As to `O=C(CC1OC(=O)c2ccccc21)Nc1cc(Cl)ccc1N1CCCC1` (stereo unspecified), the cell number change was -36.9%. Further, the AC50 under setting [1] is 1.3 µM [rising, partial curve].
Take `COc1ccc(C)cc1NC(=O)CSc1ccc(-c2cccnc2)nn1`: the cell number change is -1.01%.
Take `CC(C)[C@H](NC(=O)c1ccccc1)C(=O)OCC(=O)N1CCc2ccccc2C1`: the cell number change is -3.96%. Further, the AC50 under setting [2] was 1.16 µM [rising, single point].
Take `Cc1ccc(C(=O)N(C)CCOc2ccccc2)cc1S(=O)(=O)N1CCCCC1`: the cell number change was -9.47%.
For the compound `Cc1onc(-c2c(F)cccc2Cl)c1C(=O)N1CCCc2ccccc21`, the cell number change came out at 4.02%. In addition, under setting [2], the AC50 was 0.731 µM [falling, full curve, poor fit].
With `Cc1nc(N2CCOCC2)nc(N2CCCCC2)c1[N+](=O)[O-]`, the cell number change was determined as 9.45%. The AC50 under setting [2] was 20.6 µM [rising, partial curve].
As for `O=C(CN1C(=O)/C(=C/c2ccccc2Cl)SC1=S)NC1C=CS(=O)(=O)C1` (stereo unspecified), the cell number change came out at 2.97%. In addition, under setting [2], the AC50 was 18.4 µM [falling, partial curve].
Turning to `COCc1cc(C)nc(SCC(=O)Nc2cccc(C)c2C)c1C#N`, the AC50 under setting [1] is 0.92 µM [rising, partial curve] and the AC50 under setting [2] was 0.058 µM [rising, full curve, poor fit].
`Cc1ccc(C(=O)OCC(=O)N2C(C)CCCC2C)cc1S(=O)(=O)N1CCCCC1` (stereo unspecified): the cell number change was -41.1%. The AC50 under setting [1] is 0.92 µM [falling, full curve]. The AC50 under setting [2] was 29.1 µM [falling, single point].
Turning to `Cc1ccc(OCC(=O)N/N=C/c2cccnc2)cc1`, the cell number change was 22.7%.
On to `Fc1ccc(CNCC2CCCO2)cc1` (stereo unspecified), for which the cell number change worked out at 17.5%. Moreover, the AC50 under setting [2] is 0.651 µM [rising, single point].
Take `Nc1nc(NCCCN2CCOCC2)nc(NCc2ccccc2)c1[N+](=O)[O-]`: the cell number change came out at 10.2%.
Regarding `O=C(NCc1ccco1)c1cccc(Br)c1`, the cell number change came out at 7.66%. For the same compound, the AC50 under setting [2] is 0.58 µM [rising, single point].
On to `CCC(=O)Nc1c(C)n[nH]c1C`, for which the cell number change was 1.65%. For the same compound, the AC50 under setting [2] is 29.1 µM [falling, single point].
For the compound `Cc1ccc(-c2csc(N3CCN(CCCn4c(C(F)(F)F)nc5ccccc54)CC3)n2)cc1`, the cell number change was -7.78%. In addition, the AC50 under setting [2] was 6.51 µM [falling, single point].
In the case of `O=C(CSc1nnc(CCCO)n1-c1ccccc1)Nc1nccs1`, the cell number change worked out at 32.7%. The AC50 under setting [2] was 6.51 µM [rising, single point].
For the compound `CCN(NC(=O)C(O)(c1ccc(F)cc1)c1ccc(F)cc1)C(=O)c1ccccc1`, the cell number change is -8.96%. Also, the AC50 under setting [2] was 0.00517 µM [falling, full curve, poor fit].
Regarding `COC(=O)c1ccc(C2C(Oc3ccccc3)C(=O)N2CCc2ccc(OC)c(OC)c2)cc1` (stereo unspecified), the cell number change is -4.57%.
For the compound `N#Cc1cccc(-c2cn(S(=O)(=O)c3ccc(Cl)cc3)nc2N)c1`, the cell number change is -1.15%. The AC50 under setting [2] was 0.231 µM [rising, full curve, poor fit].
Regarding `Cc1ccc(NC(=O)CSc2nc(=O)n(CCN(C)C)c3c2CCCC3)c(C)c1`, the cell number change is -3.4%.
`Cn1c(=O)cc(OCC(=O)NCCCN2CCN(c3cccc(Cl)c3)CC2)c2ccccc21`: the cell number change is 2.99%. The AC50 under setting [2] is 2.91 µM [rising, full curve].

Source of the values: PubChem BioAssay AID2685 (National Center for Advancing Translational Sciences (NCATS), 2010).
